The target of assay [1] is canine CTLA-4 (cCTLA-4) recombinant protein (canine) (UniProt Q9XSI1). The assay is described as follows: ELISA (FIG. 1 legend). For orientation: An ELISA detects its analyte on a solid surface through an enzyme-linked reagent.
The target is the same in assay [2]. Kind of assay: ELISA, coated cCTLA-4 200 ng/well, anti-canine IgG Fc-HRP.
Assay [3] shares this target. The assay is described as follows: ELISA: cCTLA-4 coated at 200 ng/well, three-fold antibody dilutions, HRP anti-canine IgG Fc, OD450/540 (Example 3).
For assay [4] the target is unchanged. Kind of assay: blocking ELISA: cCTLA-4 coated at 200 ng/well, antibody dilutions mixed with 100 ng/well biotinylated canine CD86 (the blocked ligand), streptavidin-HRP, OD450/540 (Example 4).
The target is the same in assay [5]. Kind of assay: blocking ELISA: cCTLA-4 coated at 200 ng/well, antibody dilutions mixed with 100 ng/well biotinylated canine CD80 (the blocked ligand), streptavidin-HRP, OD450/540 (Example 4).
For assay [6] the target is unchanged. Kind of assay: ELISA and FACS screening of hybridoma clones.
The target is the same in assay [7]. Kind of assay: ELISA on cCTLA-4 (FIG. 6).
The target is the same in assay [8]. Kind of assay: ELISA on cCTLA-4 (FIG. 6 legend).
Assay [9] has the same target. Kind of assay: ELISA on coated cCTLA-4, OD450/540 ('xCTLA4 ELISA', Example 7).
For assay [10] the target is unchanged. The assay is described as follows: ELISA on cCTLA-4 (FIG. 6); the chimera represents the parental antibody.

No constants are given. Whether binding was seen depends on the method and setting. Some binding calls cover weakened binding; strength is not graded here.

The record followed here is US20260125476A1 (INTERVET, published 2026).

B1: Mouse-canine chimeric antibody 22A11 (antibody, V domains shown)
VH: QVQLQQPGTELVKPGASVKLSCKASGYTFTSYWMHWVKQRPGQGLEWIGNINPSNGGTRFNEKFKNKATLTEDKSSSTAYMQLSSLTSEDSAVYYCARSNYGSGWAWFAYWGQGTLVTVSA
VL: DIQMNQSPSSLSASLGDTITITCHASQNINVWLSWYQQKPGNIPKLLIYKSSNLHTGVPSRFSGSGSGTGFTLTISSLQPEDIATYYCQQGQSYPWTFGGGTKLEIKR
notes: Mouse variable regions fused to canine constant heavy chain and canine kappa; HEK 293, protein A
Consider B1, for which the binding result in [1], in [2], in [3], in assay [4] and in [5] was “binds” each time.

B2: Mouse monoclonal antibody 22A11 (antibody, V domains shown)
VH: QVQLQQPGTELVKPGASVKLSCKASGYTFTSYWMHWVKQRPGQGLEWIGNINPSNGGTRFNEKFKNKATLTEDKSSSTAYMQLSSLTSEDSAVYYCARSNYGSGWAWFAYWGQGTLVTVSA
VL: DIQMNQSPSSLSASLGDTITITCHASQNINVWLSWYQQKPGNIPKLLIYKSSNLHTGVPSRFSGSGSGTGFTLTISSLQPEDIATYYCQQGQSYPWTFGGGTKLEIK
Turning to B2, in assay [6], the binding result is listed as “binds”.

B3: Caninized c39A11L3H3 (antibody, V domains shown)
VH: EVKLVESGGDLVKPGGSLRLSCATSGFTFSDYYMSWVRQAPGKALEWMGFIRNKANGYTTEYSASLKGRFTISRDNAKNMLYLQMNSLRAEDTAVYYCVRFGLMYYFDYWGQGTTLTVSS
VL: ENVLTQSPASLSLSPGEKVTITCRASSSVSSSYLHWYQQKPGQSPKLWIFSTSNLASGVPSRFSGSGSGTSYSFTISSLEPEDVAVYYCQQYSGLPLTFGGGTKLELKR
notes: also called caninized 39A11 VL3/VH3
For B3, the binding entry in assay [7], in [8] and in [9] was “binds” each time.

B4: Caninized c39A11L2H3 (antibody, V domains shown)
VH: EVKLVESGGDLVKPGGSLRLSCATSGFTFSDYYMSWVRQAPGKALEWMGFIRNKANGYTTEYSASLKGRFTISRDNAKNMLYLQMNSLRAEDTAVYYCVRFGLMYYFDYWGQGTTLTVSS
VL: ENVLTQSPASLSLSQEEKVTITCRASSSVSSSYLHWYQQKPGQAPKLWIFSTSNLASGVPSRFSGSGSGTDYSFTISSLEPEDVAVYYCQQYSGLPLTFGGGTKLELKR
notes: written here as L2H3; also called caninized 39A11
With B4, the binding result in [9] is recorded as “binds”.

B5: Caninized c12B3L3H3 (antibody, V domains shown)
VH: EIQLVQSGGDLVKPGGSVRLSCKASGYTFTNYGMNWVKQAPGKGLQWMGWINTYTGEPTYADDFKGRFTFSLDNAKNTAYLQINSLRAEDTAVYFCARRSIYYPYWGQGTTLTVSS
VL: DVLMTQTPLSLSVSPGEPASISCRSSQSIVYSNGNTYLEWYLQKPGQSPKLLIYKVSNRFSGVPDRFSGSGSGTDFTLRISRVEADDAGVYYCFQGSHVPWTFGGGTKLELKR
notes: also called caninized 12B3 VL3/VH3
As for B5, the binding result in assay [7], in assay [8] and in assay [9] was “binds” in each case.

B6: Caninized c12B3L3H2 (antibody, V domains shown)
VH: EIQLVQSGGDLVKPGGSLRLSCKASGYTFTNYGMNWVRQAPGKGLQWMGWINTYTGEPTYADDFKGRFTFSLDNAKNTLYLQMNSLRAEDTAVYFCARRSIYYPYWGQGTTLTVSS
VL: DVLMTQTPLSLSVSPGEPASISCRSSQSIVYSNGNTYLEWYLQKPGQSPKLLIYKVSNRFSGVPDRFSGSGSGTDFTLRISRVEADDAGVYYCFQGSHVPWTFGGGTKLELKR
As to B6, the binding result in [7] and in assay [8] was “binds” in each case.

B7: Caninized c12B3L2H3 (antibody, V domains shown)
VH: EIQLVQSGGDLVKPGGSVRLSCKASGYTFTNYGMNWVKQAPGKGLQWMGWINTYTGEPTYADDFKGRFTFSLDNAKNTAYLQINSLRAEDTAVYFCARRSIYYPYWGQGTTLTVSS
VL: DIVMTQTPLSLSVSPGEPASISCRSSQSIVYSNGNTYLEWYQQKPGQSPKLLIYKVSNRFSGVPDRFSGSGSGTDFTLRISRVEADDAGVYYCFQGSHVPWTFGGGTKLEIKR
notes: also called caninized 12B3
On to B7, for which the binding result in [9] is “binds”.

B8: Mouse-canine chimeric antibody 27G12 (antibody, V domains shown)
VH: QIQLVQSGPELKKPGETVKISCKASGYTFTTYGVSWVKQAPGKGLRWMGWINTYSGMPTYVDDFKGRFAFSLETSASTAFLQINNLKNEDTAIYFCARRGISFDYWGQGTTLTVSS
VL: DVLMTQTPLSLPVSLGDHASISCKSSQSIVYINGNTYLEWYLQKPGQSPKLLIYKVSKRFSGVPDRFSGSGSGTDFTLKISRVEAEDLGVYYCFQGSHVPWTFGGGTKLEIKR
notes: as for B1
Consider B8, for which the binding entry in assay [1], in [2], in assay [3], in assay [4] and in assay [5] was “binds” in each case.

B9: Mouse monoclonal antibody 27G12 (antibody, V domains shown)
VH: QIQLVQSGPELKKPGETVKISCKASGYTFTTYGVSWVKQAPGKGLRWMGWINTYSGMPTYVDDFKGRFAFSLETSASTAFLQINNLKNEDTAIYFCARRGISFDYWGQGTTLTVSS
VL: DVLMTQTPLSLPVSLGDHASISCKSSQSIVYINGNTYLEWYLQKPGQSPKLLIYKVSKRFSGVPDRFSGSGSGTDFTLKISRVEAEDLGVYYCFQGSHVPWTFGGGTKLEIK
Consider B9, for which the binding result in assay [6] is “binds”.

B10: Mouse-canine chimeric antibody 45A9 (antibody, V domains shown)
VH: QIQLVQSGPELKKPGETVKISCKASGYTFTNYGMNWVKQAPGKGLKWMGWINTYTGEPTYADDFKGRFAFSLETSASTAYLQINNLKNEDTATYFCARRGTYYRPWGQGTTLTVSS
VL: DVLMTQTPLSLPVSLGDQASISCRSSQSIVYSHGNTYLEWYLQKPGQSPKVLIYKVSNRFSGVPDRFSGSGSGTDFTLKISRVEAEDLGVYYCFQGSHVPWTFGGGTKLEIKR
notes: as for B1
Regarding B10, the binding entry in [1], in assay [2], in assay [3], in assay [4] and in assay [5] was “binds” each time.

B11: Mouse-canine chimeric antibody 110E3 (antibody, V domains shown)
VH: QIQLVQSGPELKKPGETVKISCKASGYTFTNYGMNWVKQAPGKGLKWMGWINTYTGEPTYADDFKGRVAFSLETSASTAFLQINNLKNEDTATYFCARRGVRLDYWGQGTTLTVSS
VL: DVLMTQTPLSLPVSLGDQASISCRSSQSIVYISGSTYLEWYLQKPGQSPKLLIYKVSSRFSGVPDRFSGSGSGTDFTLKISRVEAEDLGVYYCFQGSHVPWTFGGGTKLEIKR
notes: as for B1
Turning to B11, the binding result in assay [1], in [2], in assay [3], in [4] and in [5] was “binds” each time.

B12: Mouse-canine chimeric antibody 39A11 (antibody, V domains shown)
VH: EVKLVESGGGLVQPGGSLSLSCATSGFTFSDYYMSWVRQSPGKALEWMGFIRNKANGYTTEYSASLKGRFTISRDNSQSILYLQMNVLRAEDSATYYCVRFGLMYYFDYWGQGTTLTVSS
VL: ENVLIQSPAIMSASPGEKVTMTCRASSSVSSSYLHWYQQKSGASPKLWIFSTSNLASGVPARFSGSGSGTSYSLTINSVEAEDAATYYCQQYSGLPLTFGGGTKLEIKR
notes: Mouse variable regions fused to canine constant heavy chain and canine kappa; HEK 293, protein A; also called chimera of 39A11
Take B12: the binding entry in assay [1], in assay [2], in assay [9], in assay [10], in assay [3] and in assay [4] was “binds” each time. For the same molecule, the binding entry in [5] was “binds”.

B13: Mouse monoclonal antibody 39A11 (antibody, V domains shown)
VH: EVKLVESGGGLVQPGGSLSLSCATSGFTFSDYYMSWVRQSPGKALEWMGFIRNKANGYTTEYSASLKGRFTISRDNSQSILYLQMNVLRAEDSATYYCVRFGLMYYFDYWGQGTTLTVSS
VL: ENVLIQSPAIMSASPGEKVTMTCRASSSVSSSYLHWYQQKSGASPKLWIFSTSNLASGVPARFSGSGSGTSYSLTINSVEAEDAATYYCQQYSGLPLTFGGGTKLEIK
As for B13, in assay [6], the binding result is recorded as “binds”.

B14: Mouse monoclonal antibody 45A9 (antibody, V domains shown)
VH: QIQLVQSGPELKKPGETVKISCKASGYTFTNYGMNWVKQAPGKGLKWMGWINTYTGEPTYADDFKGRFAFSLETSASTAYLQINNLKNEDTATYFCARRGTYYRPWGQGTTLTVSS
VL: DVLMTQTPLSLPVSLGDQASISCRSSQSIVYSHGNTYLEWYLQKPGQSPKVLIYKVSNRFSGVPDRFSGSGSGTDFTLKISRVEAEDLGVYYCFQGSHVPWTFGGGTKLEIK
As to B14, in assay [6], the binding entry is on record as “binds”.

B15: Mouse monoclonal antibody 110E3 (antibody, V domains shown)
VH: QIQLVQSGPELKKPGETVKISCKASGYTFTNYGMNWVKQAPGKGLKWMGWINTYTGEPTYADDFKGRVAFSLETSASTAFLQINNLKNEDTATYFCARRGVRLDYWGQGTTLTVSS
VL: DVLMTQTPLSLPVSLGDQASISCRSSQSIVYISGSTYLEWYLQKPGQSPKLLIYKVSSRFSGVPDRFSGSGSGTDFTLKISRVEAEDLGVYYCFQGSHVPWTFGGGTKLEIK
With B15, the binding result in [6] is reported as “binds”.
